In publication PMC12670160, “A drug-repurposing screen of FDA- and EMA-approved drugs identifies two NF-κB inhibitors active against eumycetoma” (Journal of Antimicrobial Chemotherapy, 2025):
Where a name gives a salt, the structure may show the parent alone. Read-outs that look alike come from different tables or passages of the source. The campaign covered roughly 5,300 compounds. About 130 (2.5%) showed an effect of 50% or more. The list shows a part of the results.

Tested on: M. mycetomatis strain mm55
Settings: primary screen, metabolic activity vs growth control, 96 h, 2 µM, inhibitor

Row | SMILES | % viability [%] | % viability (Madurella mycetomatis metabolic activity at 2µM (%)) [%]
1 | CC(C)N[C@@H]1CCn2c(=O)[nH]c3cccc(c32)[C@H]1O [ONC0001941, zilpaterolhcl] | 67.69 | –
2 | CCC(C)C(CC)C(N)=O (stereo not shown) [ONC0005576, valnoctamide] | 52.5 | –
3 | C=CCN1CCCC1CNC(=O)c1cc2[nH]nnc2cc1OC (stereo not shown) [ONC0005109, alizapride hydrochloride] | 99.16 | –
4 | CN(C)CC/C=C1/c2ccccc2COc2ccccc21 [ONC0000649, doxepin hydrochloride] | 114.1 | –
5 | CC(=O)NCCc1c(Cc2ccccc2)[nH]c2ccccc12 [ONC0000131, luzindole] | 89.06 | –
6 | O=C(O)c1ccccc1Nc1cccc(OCc2ccc3ccccc3n2)c1 [ONC0001414, sr2640] | 39.31 | –
7 | Nc1ncnc2c1nc(Br)n2[C@@H]1O[C@@H]2COP(=O)(O)O[C@H]2[C@H]1O [ONC0001655, 8bromocamp] | 61.1 | –
8 | CC(C)(C)NC(=O)[C@@H]1CN(Cc2cccnc2)CCN1C[C@@H](O)C[C@@H](Cc1ccccc1)C(=O)N[C@H]1c2ccccc2C[C@H]1O [ONC0003454, indinavir] | 88.37 | –
9 | O=C(Nc1ccc(C(F)(F)F)cn1)N1CCN(c2ncccc2C(F)(F)F)CC1 [ONC0000122, jnj17203212] | 104 | –
10 | CC(=O)O[C@H]1Cc2ccccc2N(C(N)=O)c2ccccc21 [ONC0002100, eslicarbazepine acetate] | 73.47 | –
11 | OC[C@H]1O[C@@H](Oc2cc3c(O)cc(O)cc3[o+]c2-c2ccc(O)c(O)c2)[C@H](O)[C@@H](O)[C@@H]1O [ONC0001073, kuromanin chloride] | 60.47 | –
12 | O=C(O)c1ccc(N2C(=O)/C(=C/c3ccc(-c4ccc([N+](=O)[O-])cc4)o3)C=C2c2ccccc2)cc1 [ONC0005117, 4e1rcat] | 73.26 | –
13 | CCOC(=O)c1ccc(N2NC(=O)/C(=C/c3ccc([N+](=O)[O-])o3)C2=O)cc1 [ONC0005037, pyr41] | 64.91 | –
14 | COc1ccc(-c2cnc3c(-c4cccc5ncccc45)cnn3c2)cc1 [ONC0005150, ml347] | – | 135.6
15 | CCC[C@@H]1CC2=CC(=O)CC[C@]2(C)[C@H]2CC[C@@]3(C)[C@@H](CC[C@@]3(O)CCC(=O)O)[C@H]12 [ONC0001504, ru28318] | 109.5 | –
16 | Cc1cc(/C=C2\SC(=O)N(c3ccccc3)C2=O)c(C)n1-c1cccnc1 [ONC0002552, icrt14] | 66.69 | –
17 | COC(=O)Nc1nc2cc(C(=O)c3ccc(F)cc3)ccc2[nH]1 [ONC0004284, flubendazole] | 56.28 | –
18 | CC[C@]1(O)C[C@@H]2CN(CCc3c([nH]c4ccccc34)[C@@](C(=O)OC)(c3cc4c(cc3OC)N(C)[C@H]3[C@@](O)(C(=O)OC)[C@H](OC(C)=O)[C@]5(CC)C=CCN6CC[C@]43[C@@H]65)C2)C1.O=S(=O)(O)O [ONC0001979, vinblastine sulfate] | 92.29 | –
19 | O=C1c2ccccc2C(Cc2ccncc2)(Cc2ccncc2)c2ccccc21 [ONC0001701, xe991] | 53.63 | –

Row | SMILES | % viability [%] | % viability (Madurella mycetomatis metabolic activity at 2µM (%)) [%]
20 | CC[N+]1(C)CCCC(OC(=O)C(O)(c2ccccc2)c2ccccc2)C1 (stereo not shown) [ONC0002856, pipenzolate bromide] | 101.8 | –
21 | CC[C@@H]1C(=O)N(C)c2cnc(Nc3ccc(C(=O)NC4CCN(C)CC4)cc3OC)nc2N1C1CCCC1 [ONC0004589, bi 2536] | 63.71 | –
22 | Cn1c(=O)c2c(ncn2C)n(C)c1=O [ONC0003256, caffeine] | 77.94 | –
23 | CCN1CCN(c2cc(-c3ccc(F)cc3)c3c(n2)CCCCCC3)CC1 [ONC0004632, blonanserin lonasen] | 79.97 | –
24 | CCO/N=C(/C(=O)N[C@@H]1C(=O)N2C(C(=O)O)=C(Sc3nc(-c4cc[n+](C)cc4)cs3)CS[C@H]12)c1nsc(NP(=O)(O)O)n1 [ONC0002991, ceftarolinefosamil] | 80.17 | –
25 | Cc1cc(CN)cc(C)c1NC(=O)c1ccc(-c2cc(Cl)ccc2Cl)o1 [ONC0001490, cym50358] | 73.53 | –
26 | Cc1c(OCC(F)(F)F)ccnc1C[S+]([O-])c1nc2ccccc2[nH]1 (stereo not shown) [ONC0002455, lansoprazole] | 69.49 | –
27 | CNCCCOc1cc(F)c(-c2c(Cl)nc3ncnn3c2N[C@@H](C)C(F)(F)F)c(F)c1 [ONC0002250, cevipabulin] | 113.6 | –
28 | COc1ccc(NS(=O)(=O)c2ccc(N=Nc3ccc(O)c(C(=O)O)c3)cc2)nn1 [ONC0003399, salazodine] | 47.95 | –
29 | Cc1ccc2c(c1)Cc1c(C(=O)NC3CCCCC3)nn(-c3ccc(Cl)cc3Cl)c1-2 [ONC0003630, gp2a] | 52.61 | –
30 | O=C(O)c1ccc(S(=O)(=O)N(Cc2ccc(OC(F)(F)F)cc2)c2ncc(C(F)(F)F)cc2Cl)cc1 [ONC0001283, rq00203078] | 78.18 | –
31 | c1ccc([C@@H]2C[C@H]2NC2CCNCC2)cc1 [ONC0003011, gsklsd1] | 91.17 | –
32 | Cc1nnc2n1-c1sc(CCC(=O)N3CCOCC3)cc1C(c1ccccc1Cl)=NC2 [ONC0003000, apafant] | 64.39 | –
33 | Fc1ccc(-c2cncc(CN3CCN(c4cccc5c4OCCO5)CC3)c2)cc1 [ONC0001790, adoprazine] | 89.4 | –
34 | CC(C)(C)NCC(O)c1ccc(O)c(CO)c1 (stereo not shown) [ONC0000658, albuterol] | 133.9 | –
35 | Cc1sc2c(c1C)C(c1ccc(Cl)cc1)=N[C@@H](CC(=O)Nc1ccc(OCCOCCOCCOCCNc3cccc4c3C(=O)N(C3CCC(=O)NC3=O)C4=O)cc1)c1nnc(C)n1-2 (stereo partly shown) [ONC0002091, arv825] | 72.49 | –
36 | CC(C)N1CCN(c2ccc(OC[C@@H]3CO[C@@](Cn4cncn4)(c4ccc(Cl)cc4Cl)O3)cc2)CC1 [ONC0002390, terconazole] | 66.82 | –
37 | CCS(=O)(=O)N1CCC([C@@H](C)n2c(C)c(C(=O)NCc3c(OC)cc(C)[nH]c3=O)c3ccccc32)CC1 [ONC0002050, cpi169] | 60.75 | –

Complete entries, looked up by structure:
`Cc1sc2c(c1C)C(c1ccc(Cl)cc1)=N[C@@H](CC(=O)Nc1ccc(OCCOCCOCCOCCNc3cccc4c3C(=O)N(C3CCC(=O)NC3=O)C4=O)cc1)c1nnc(C)n1-2` (stereo partly shown) [ONC0002091, arv825] as listed: % viability [%]: 72.49
`COc1ccc(NS(=O)(=O)c2ccc(N=Nc3ccc(O)c(C(=O)O)c3)cc2)nn1` [ONC0003399, salazodine] as listed: % viability [%]: 47.95
`CC(C)(C)NCC(O)c1ccc(O)c(CO)c1` (stereo not shown) [ONC0000658, albuterol] as listed: % viability [%]: 133.9
